PubChem BioAssay AID652243, Drosophila RNAi Screening Center | 2013
The deposit covers about 24,000 reagents; shown is an unselected part of those with a known target gene and a result. In the full data, 246 (1%) were called active. 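Plates not normalised; calls are printed but the firefly/Renilla ratio behind them is not deposited; fold cut for lowering reported inconsistently.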 The raw values are shown without normalisation. Names joined by + are all predicted targets of the reagent. Not given: the amount of reagent.

Aim: 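Fly genes required for human androgen receptor driven transcription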 (primary screen)
Cell system: Drosophila S2R+ cells
Reagents: long dsRNA against Drosophila genes
Timing: 72 h (48 h, then 24 h hormone)
Challenge: synthetic androgen R1881 at 10 nM for 24 h
Read-out: 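Firefly light from an androgen-responsive reporter and Renilla control light per well, raw and unnormalised, for each of two replicates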
Direction: firefly reporter light: higher = more light from androgen-responsive reporter; Renilla control light: higher = more constitutive control signal (cell number, transfection)
Active means: 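Across duplicate plates, a knock-down whose log firefly/Renilla ratio shifted a set fold down or up from the GFP/LacZ control mean was a hit; the downward cut appears as both 1.5 and 3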
Meaning of the calls: active = hit: reporter lowered or raised; inactive = no hit

gene knocked down | DRSC id | firefly reporter light, replicate 1 | firefly reporter light, replicate 2 | Renilla control light, replicate 1 | Renilla control light, replicate 2 | activity call
BORCS5 | DRSC19427 | 1.08e5 | 1.15e5 | 1.01e6 | 9.30e5 | inactive
BORCS5 | DRSC26187 | 4.53e5 | 4.13e5 | 6.01e5 | 3.28e5 | inactive
Tsp42Ek | DRSC06187 | 3.73e5 | 4.45e5 | 2.04e6 | 2.91e6 | inactive
CG13031 | DRSC09911 | 1.92e5 | 2.58e5 | 2.37e6 | 2.15e6 | inactive
CG12769 | DRSC25056 | 9.77e5 | 8.19e5 | 1.27e6 | 1.32e6 | inactive
CG15386 + CG42371 | DRSC00400 | 1.91e5 | 1.60e5 | 1.13e6 | 8.90e5 | inactive
CG15386 + CG42371 | DRSC30077 | 6.60e5 | 7.61e5 | 1.34e6 | 1.20e6 | inactive
TTLL4B | DRSC00636 | 1.01e6 | 1.03e6 | 1.37e6 | 1.36e6 | inactive
TTLL4B | DRSC28854 | 7.44e5 | 8.86e5 | 1.40e6 | 1.62e6 | inactive
CG8034 | DRSC20076 | 81787 | 67405 | 3.29e5 | 4.31e5 | inactive
CG8034 | DRSC29895 | 6.12e5 | 3.30e5 | 8.26e5 | 7.79e5 | inactive
Csk | DRSC12861 | 1.06e5 | 51842 | 1.56e5 | 1.30e5 | inactive
Csk | DRSC23272 | 7.98e5 | 5.43e5 | 1.38e5 | 1.01e5 | inactive
Csk | DRSC26697 | 2.47e5 | 2.62e5 | 5.98e5 | 5.70e5 | inactive
Csk | DRSC36921 | – | – | – | – | inactive
Csk | DRSC36922 | – | – | – | – | inactive
CG13692 | DRSC00361 | 1.22e5 | 92650 | 4.43e5 | 5.47e5 | inactive
CG13692 | DRSC28585 | 8.89e5 | 7.98e5 | 2.37e6 | 1.90e6 | inactive
CG31664 | DRSC22084 | 7.17e5 | 7.21e5 | 1.96e6 | 2.19e6 | inactive
CG4709 | DRSC02772 | 1.23e6 | 1.19e6 | 1.81e6 | 2.29e6 | inactive
Mlc1 | DRSC16740 | 1.96e5 | 1.73e5 | 1.88e6 | 1.78e6 | inactive
Mlc1 | DRSC27232 | 2.05e5 | 2.67e5 | 4.20e5 | 4.73e5 | inactive

4 entries from above, set out differently.
gene knocked down,DRSC id,"firefly reporter light, replicate 1","firefly reporter light, replicate 2","Renilla control light, replicate 1","Renilla control light, replicate 2",activity call
CG15386 + CG42371,DRSC30077,6.60e5,7.61e5,1.34e6,1.20e6,inactive
TTLL4B,DRSC00636,1.01e6,1.03e6,1.37e6,1.36e6,inactive
TTLL4B,DRSC28854,7.44e5,8.86e5,1.40e6,1.62e6,inactive
CG8034,DRSC20076,81787,67405,3.29e5,4.31e5,inactive

The results go on:
gene knocked down | DRSC id | firefly reporter light, replicate 1 | firefly reporter light, replicate 2 | Renilla control light, replicate 1 | Renilla control light, replicate 2 | activity call
DnaJ-H | DRSC03273 | 2.63e5 | 2.45e5 | 1.58e6 | 1.71e6 | inactive
Or33c | DRSC03388 | 2.08e5 | 2.56e5 | 1.17e6 | 1.37e6 | inactive
CecB | DRSC16605 | 2.39e5 | 2.46e5 | 2.31e6 | 2.99e6 | inactive
CG13800 (retired record) | DRSC08334 | 53484 | 64087 | 6.23e5 | 7.54e5 | inactive
CG13800 (retired record) | DRSC28906 | 2.98e5 | 1.81e5 | 1.02e6 | 7.17e5 | inactive
Cndp2 | DRSC04873 | 1.70e5 | 1.83e5 | 1.43e6 | 1.03e6 | inactive
CG7402 | DRSC10839 | 1.89e5 | 1.57e5 | 2.12e6 | 1.67e6 | inactive
RpL7-like | DRSC02836 | 1.47e5 | 2.14e5 | 1.84e6 | 3.23e6 | inactive
RpL7-like | DRSC28314 | 3.30e5 | 5.49e5 | 1.85e6 | 2.33e6 | inactive
RpL7-like | DRSC39019 | 9.45e5 | 1.03e6 | 2.13e6 | 2.45e6 | inactive
CG17687 | DRSC10279 | 1.17e5 | 1.07e5 | 1.62e6 | 1.32e6 | inactive
CG17687 | DRSC25837 | 2.76e5 | 3.53e5 | 7.77e5 | 6.76e5 | inactive
Gr98c | DRSC22212 | 8.26e5 | 7.79e5 | 2.71e6 | 2.45e6 | inactive
Gr98c | DRSC26546 | 3.91e5 | 3.10e5 | 6.41e5 | 6.66e5 | inactive
Gr64e + Gr64d | DRSC28375 | 4.24e5 | 6.64e5 | 1.38e6 | 1.65e6 | inactive
Rchy1 | DRSC23118 | 6.59e5 | 7.84e5 | 8.00e5 | 1.14e6 | inactive
Rchy1 | DRSC26775 | 3.63e5 | 4.29e5 | 1.21e6 | 8.82e5 | inactive
Sdb | DRSC06272 | 78257 | 1.03e5 | 1.63e6 | 1.63e6 | inactive
Sdb | DRSC06273 | 1.44e5 | 1.87e5 | 2.96e6 | 2.96e6 | inactive
Sdb | DRSC07155 | 1.42e6 | 8.83e5 | 2.82e6 | 1.95e6 | inactive
